Measurements from article PMC7819943, “Rice protein-binding microarrays: a tool to detect cis-acting elements near promoter regions in rice”.
The list shows a part of the results.

Biological target: T1, OsSMF1 (Oryza sativa, UniProt Q6ZLB0 1-436)
T1 sequence: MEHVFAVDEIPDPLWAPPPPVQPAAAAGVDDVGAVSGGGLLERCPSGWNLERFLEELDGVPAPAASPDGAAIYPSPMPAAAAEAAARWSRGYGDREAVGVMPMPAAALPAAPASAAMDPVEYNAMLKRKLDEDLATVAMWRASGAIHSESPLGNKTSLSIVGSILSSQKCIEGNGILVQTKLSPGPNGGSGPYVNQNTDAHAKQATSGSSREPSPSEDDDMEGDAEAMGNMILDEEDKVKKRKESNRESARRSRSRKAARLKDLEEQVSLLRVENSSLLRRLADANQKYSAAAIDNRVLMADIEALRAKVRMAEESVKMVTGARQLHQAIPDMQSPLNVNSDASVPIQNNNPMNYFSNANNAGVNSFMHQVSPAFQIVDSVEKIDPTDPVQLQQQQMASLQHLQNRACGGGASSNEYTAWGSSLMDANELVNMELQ
Test: protein-binding microarray (RPBM); PBS, 2% BSA, 51.3 ng/ul salmon testes DNA, 50 uM zinc acetate, 200 nM TF, 25 C, 1 h; high values mean tight binding
Details: protein: recombinant; tags: N-terminal polyhistidine and DsRed monomer fusion (pET32a); chain copies: 2; label: CyDye5-dUTP incorporated in the synthesized complementary strand; 3' TTTTT single-stranded linker to array surface; dsDNA, one strand shown
In short: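 Transcription factors were each fused at the N-terminus to a polyhistidine tag plus DsRed and expressed in E. coli BL21-CodonPlus before Ni–NTA purification. Binding to a double-stranded custom Agilent array was carried out with 200 nM protein at 25 °C for 1 h in PBS, 2% BSA, salmon testes DNA and 50 µM zinc acetate. The binding signal is per-feature fluorescence intensity, in arbitrary units, on an Axon 4000B scanner.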

Sequence	binding signal
ACAATGAACACACGTCAGGAAGTCACTCCGGTACAAGCCACGGAGTCACCTAGTGCAG	5160 fluorescence intensity (a.u.)
AACATTCTGTTAGAGAATGATGTGGCATATAACTGTTGGTCGGAGTCACCTAGTGCAG	15500 fluorescence intensity (a.u.)
ACAAGAAACTGGACAACTTCCACCGCCATCAATGACTCTGCGGAGTCACCTAGTGCAG	3520 fluorescence intensity (a.u.)
ATCACATAAAATTCCAGGGTTAATTGGATCCATGCTACTGCGGAGTCACCTAGTGCAG	4010 fluorescence intensity (a.u.)
CTTGTCTGTCACCAGTTCATCACGCGATGTCGTCATAGCTCGGAGTCACCTAGTGCAG	5840 fluorescence intensity (a.u.)
TCCACCACACGTGTCTATATCGCTTCCTTCCATTCCATCACGGAGTCACCTAGTGCAG	7170 fluorescence intensity (a.u.)
AATTACCACCCTAACTCAATTAGAAGCGGTTTTCAGCCTACGGAGTCACCTAGTGCAG	52400 fluorescence intensity (a.u.)
GTCGCCAATAGGGAGAGGCCAATCACCGTTCCTCGGCTCACGGAGTCACCTAGTGCAG	3190 fluorescence intensity (a.u.)
AGGACCAGCGTCGGGGATGGCGTCCACGTCACCGCATCCGCGGAGTCACCTAGTGCAG	14600 fluorescence intensity (a.u.)
GTCGTTACATTTTGCTTAATCCAGTCATCCAGATAATCACCGGAGTCACCTAGTGCAG	3200 fluorescence intensity (a.u.)
ACAGTGTCACTGCAGCTGCCACTCGCCACGCACGTGAACGCGGAGTCACCTAGTGCAG	5560 fluorescence intensity (a.u.)
GTATTATACTAGTATAAGGTTTAGCGTGGGATGCGTGGGGCGGAGTCACCTAGTGCAG	3300 fluorescence intensity (a.u.)
CGATTTTACCTTCTACGGAAGAACGGCTATGATGTGTCATCGGAGTCACCTAGTGCAG	7030 fluorescence intensity (a.u.)
TAGCAGCAGCACAGTGACGACGACGCTAGCTAAGGGCAGACGGAGTCACCTAGTGCAG	36700 fluorescence intensity (a.u.)
TTGGGAGCTCGCCGGTGACGTGGTATGTGTGTTGGTGGTGCGGAGTCACCTAGTGCAG	21700 fluorescence intensity (a.u.)
ACGAGCAACTTATATATTGTTGTACCGTTATACCCACCACCGGAGTCACCTAGTGCAG	3790 fluorescence intensity (a.u.)
CCCAACCTCTCTCTCTCTCTCTCTCTCTCTCCTCCCACCCCGGAGTCACCTAGTGCAG	3170 fluorescence intensity (a.u.)
AACTAGCACATATAATATTAGTGCAACTGGCATCTACACTCGGAGTCACCTAGTGCAG	3650 fluorescence intensity (a.u.)
TTAGGCGGCCTGACGGCCCACCTGTAAGTCTGACGCGGCCCGGAGTCACCTAGTGCAG	8170 fluorescence intensity (a.u.)
GAGCCGGGTCGGTCTGCCGCTCTTATGGATCAACGTGCCACGGAGTCACCTAGTGCAG	3260 fluorescence intensity (a.u.)
ATTAACTGCCAACTGTGCGCTGCTAATCTGATTTGATCCACGGAGTCACCTAGTGCAG	3520 fluorescence intensity (a.u.)

Sequence	binding signal
GCGTACGGCATCAATTGCTGCGTGCACTCACTTGTCGTCACGGAGTCACCTAGTGCAG	3220 fluorescence intensity (a.u.)
GACTGAATGCCCACCCCTACGTGTTGAGACTTGTGAGAGGCGGAGTCACCTAGTGCAG	3530 fluorescence intensity (a.u.)
ACTCACCAAACGCATCAACTACTACCCCAAATTTTCTATCCGGAGTCACCTAGTGCAG	24700 fluorescence intensity (a.u.)
CTGCGGGAGGACGGGTCCGGGGCGGGGTCCGGGTCGGTGCCGGAGTCACCTAGTGCAG	3280 fluorescence intensity (a.u.)
CACACTCACTATTCTAAACGCATACACGTAGCATATCTTGCGGAGTCACCTAGTGCAG	5890 fluorescence intensity (a.u.)
TATAACGGATTCATCCGATTCCATTCCTCTGTTTACCTCTCGGAGTCACCTAGTGCAG	19300 fluorescence intensity (a.u.)
TGAACATGCCCATTGTTACTCATTCCTAATACTATAGGAACGGAGTCACCTAGTGCAG	42200 fluorescence intensity (a.u.)
ACCCTTCCGCTTTGCCCCTGCTGCCTACACCGCCCCACCGCGGAGTCACCTAGTGCAG	3480 fluorescence intensity (a.u.)
CCGCGGCCGCTCGTCCCACGGATCTGGAAATCGCATCCGCCGGAGTCACCTAGTGCAG	3240 fluorescence intensity (a.u.)
TGCCTCACCGCCACTAGCTAGCAGCAGCGGCGGCGGCGGCCGGAGTCACCTAGTGCAG	22700 fluorescence intensity (a.u.)
ACAAACTTCCAACTTTTCTATCACATCGTTCCAATTTCAACGGAGTCACCTAGTGCAG	22100 fluorescence intensity (a.u.)
AATTCAAGTTGCCACGTTCACCTCAATAATGCTTGGGTACCGGAGTCACCTAGTGCAG	4410 fluorescence intensity (a.u.)
AACCAACGGTCGCTGTTACGCCACGTCACCTCACCGACGCCGGAGTCACCTAGTGCAG	39200 fluorescence intensity (a.u.)
GTCTGTGATCCACTTAAGCCGCAAACTACACGTAAGATATCGGAGTCACCTAGTGCAG	5090 fluorescence intensity (a.u.)
GTACTGCACTTGGGTTATAACTTCTCGACCTTCAACACTTCGGAGTCACCTAGTGCAG	17300 fluorescence intensity (a.u.)
GTTTTATTTTGTCCACGTAGATCCTCTAAGTACTTGTTTTCGGAGTCACCTAGTGCAG	16400 fluorescence intensity (a.u.)
CAACTGCACCGTGCAGCTGCCGCAGCATCACCTTCCCACGCGGAGTCACCTAGTGCAG	3500 fluorescence intensity (a.u.)
TGCTTCCACCGCATCGTCACTCGCCGGTGAGCATCCCTCTCGGAGTCACCTAGTGCAG	4800 fluorescence intensity (a.u.)
ATAATCCTATTGTAGATTTGCTGAGTTGTACCACCATATCCGGAGTCACCTAGTGCAG	7970 fluorescence intensity (a.u.)
TGTTTAGTTGGTGTAGAGATGGTAGATGCTAACTAAACTGCGGAGTCACCTAGTGCAG	18400 fluorescence intensity (a.u.)
AGTACGTAAAGGTGTAGGACGACAACTGTTGATGGGACATCGGAGTCACCTAGTGCAG	3690 fluorescence intensity (a.u.)

Sequence	binding signal
AGCTGGTTTTGCCAATTTTATTTGCTTGTCATTGGCTCTGCGGAGTCACCTAGTGCAG	3890 fluorescence intensity (a.u.)
GAGCCAGTGGAGATGGAAGCTGATGCAATGTTGGAGGCGGCGGAGTCACCTAGTGCAG	3930 fluorescence intensity (a.u.)
CCGCGCACCATCTCAACCGGTCAACAGAGACTCTCCACTACGGAGTCACCTAGTGCAG	4050 fluorescence intensity (a.u.)
TAAGTATGACTCGTAGACAACGGACCCTTTACGATAGGTTCGGAGTCACCTAGTGCAG	3230 fluorescence intensity (a.u.)
TGGGCCCCACCGAGCAGTGAGAGGACGAGTAGTACAGATCCGGAGTCACCTAGTGCAG	28800 fluorescence intensity (a.u.)
CCGCTCGCCGCCGCGCGGTCACTGCCATGCGGCGCCGCCACGGAGTCACCTAGTGCAG	3140 fluorescence intensity (a.u.)
AAAGCTGCGCCGCCACAGGCGCGCACGTCAGCGCTGTCGCCGGAGTCACCTAGTGCAG	4630 fluorescence intensity (a.u.)
CCATGTTTTCATCATCATCTTCTTCTTCTTCTTCCACCCGCGGAGTCACCTAGTGCAG	3450 fluorescence intensity (a.u.)
TCATCCGGGCCCACGTGCACAGAGACACCCCAGCTCACGCCGGAGTCACCTAGTGCAG	3580 fluorescence intensity (a.u.)
GTTGTAACAGTGATCCACCTTTGTTCTGTTTTGAGGTCATCGGAGTCACCTAGTGCAG	4150 fluorescence intensity (a.u.)
ATTGCGAGCGCCCATGGATTGGACACGCGTCTCTCTCGCCCGGAGTCACCTAGTGCAG	5760 fluorescence intensity (a.u.)
CCGCCGCTCCAGCCCACCACCGCCGCCACTTCAGCTAGCTCGGAGTCACCTAGTGCAG	3250 fluorescence intensity (a.u.)
CAAACCGACACACGACGTGTGACGTGTTACACGCACCCCTCGGAGTCACCTAGTGCAG	22200 fluorescence intensity (a.u.)
TTCGTCTGGCAACGCCGCCGCCGCCGCCCTAGTCGCCGCTCGGAGTCACCTAGTGCAG	3760 fluorescence intensity (a.u.)
GAAAATTTTCCTATTTGGCCCTTTGATACAAAGGATTGGACGGAGTCACCTAGTGCAG	3370 fluorescence intensity (a.u.)
CCCCTATGTACATTTATGTGGGCCTCATGTGTCATAACCTCGGAGTCACCTAGTGCAG	4700 fluorescence intensity (a.u.)
GCGATGCCTATGCAAGTTGCCCACGTCCTCCATGGAAACTCGGAGTCACCTAGTGCAG	3280 fluorescence intensity (a.u.)
TCCCGCGGATCGCCTCCTCGGCGCGCGCCGTGGCGGCCAACGGAGTCACCTAGTGCAG	3540 fluorescence intensity (a.u.)
CGCCTCTGTCATAGCGGAGAGCACGGTCACCACCACGGTGCGGAGTCACCTAGTGCAG	5990 fluorescence intensity (a.u.)
TTAATGTATGACGCTGTTCACTTTTCATCTAACGCTTAACCGGAGTCACCTAGTGCAG	4120 fluorescence intensity (a.u.)
AAGAGATGCAATTTACACTTTTGATGAATCATCCAAAGTCCGGAGTCACCTAGTGCAG	5470 fluorescence intensity (a.u.)

Sequence	binding signal
TCCCACACGCCATGACGCCAACCAACCCAAGCACAGCAGTCGGAGTCACCTAGTGCAG	3850 fluorescence intensity (a.u.)
GCCAATCGAAACGTTGGCTCGCTCGGTCATCATCTTGCATCGGAGTCACCTAGTGCAG	4000 fluorescence intensity (a.u.)
CTCCACCACTAATTCCTTCTTGCCACATGTGGTCGCTGATCGGAGTCACCTAGTGCAG	3880 fluorescence intensity (a.u.)
ATAAACCAATGTAAAGAAAAGAGATGAAACTACTTTGACGCGGAGTCACCTAGTGCAG	5230 fluorescence intensity (a.u.)
ACGGGATGCTATTTTGTAGCTGCCCTCTTAAACAAGACGACGGAGTCACCTAGTGCAG	3970 fluorescence intensity (a.u.)
ATGCCATGAAAGGCTAGCTGAAAGCAACACGATGCACTTGCGGAGTCACCTAGTGCAG	16700 fluorescence intensity (a.u.)
CCACTTGTATCCCCTTAGTTCATCCTCCTTCCACCTCTATCGGAGTCACCTAGTGCAG	3250 fluorescence intensity (a.u.)
GTTCTCCCAGGTGGAGTCGACGCGAGCCCACGCGCTGTAGCGGAGTCACCTAGTGCAG	3650 fluorescence intensity (a.u.)
CAGTCCCGAATCGTATGTTGGACACGCCAACACACACCATCGGAGTCACCTAGTGCAG	4120 fluorescence intensity (a.u.)
AAAGAGCATATACAATCATCAGTGTTTTCTCATCTGAAACCGGAGTCACCTAGTGCAG	13500 fluorescence intensity (a.u.)
TGGTGGCCCGGCGGGCGGGCGGGGCGGGGCGGACGAACGGCGGAGTCACCTAGTGCAG	5500 fluorescence intensity (a.u.)
CACACTCATTGCGTGTGTGTCGAAGACGGCCGGGCGCTGCCGGAGTCACCTAGTGCAG	33900 fluorescence intensity (a.u.)
TTTCTGAATTTCCGGCGACACGCACGGTTGCCATCACCGTCGGAGTCACCTAGTGCAG	3370 fluorescence intensity (a.u.)
AATTTATATTTCCTTTATATCATCATTATACTATATATTACGGAGTCACCTAGTGCAG	4290 fluorescence intensity (a.u.)
AACGACCGACCGCGCTTGATGCGTCACCATGATTACCTGGCGGAGTCACCTAGTGCAG	7680 fluorescence intensity (a.u.)
TTGTTTGCTGCTAATGAGTCAAGTTGGAGATAGCTTGGTCCGGAGTCACCTAGTGCAG	3270 fluorescence intensity (a.u.)
CATCCGTATTTGAGTCAGTTTTAAAGTTTGTTCGCTTTTGCGGAGTCACCTAGTGCAG	3260 fluorescence intensity (a.u.)
AAATGCGAGAAGAGAATGCGCGTTGACTGGACAGGCTCCTCGGAGTCACCTAGTGCAG	3260 fluorescence intensity (a.u.)
GCGCCGTCTCCCTCACCGTTACCGGCGTCATCGTAGTTGACGGAGTCACCTAGTGCAG	5290 fluorescence intensity (a.u.)
AAAGCCCAGTACGACAGTGAGGCCGAACAGAACGCCCTGGCGGAGTCACCTAGTGCAG	23900 fluorescence intensity (a.u.)
ACCAAATTAAGTGTTGTTTTGCCAAAATCTTGACAATTATCGGAGTCACCTAGTGCAG	19700 fluorescence intensity (a.u.)

Some of the entries above, reformatted:

| Sequence | binding signal |
| --- | --- |
| GTCTGTGATCCACTTAAGCCGCAAACTACACGTAAGATATCGGAGTCACCTAGTGCAG | 5090 fluorescence intensity (a.u.) |
| TGCTTCCACCGCATCGTCACTCGCCGGTGAGCATCCCTCTCGGAGTCACCTAGTGCAG | 4800 fluorescence intensity (a.u.) |
| CCGCTCGCCGCCGCGCGGTCACTGCCATGCGGCGCCGCCACGGAGTCACCTAGTGCAG | 3140 fluorescence intensity (a.u.) |
| CCCCTATGTACATTTATGTGGGCCTCATGTGTCATAACCTCGGAGTCACCTAGTGCAG | 4700 fluorescence intensity (a.u.) |
| GTTCTCCCAGGTGGAGTCGACGCGAGCCCACGCGCTGTAGCGGAGTCACCTAGTGCAG | 3650 fluorescence intensity (a.u.) |
